We go through eight substances from patent US20240408222A1 (VINCERX PHARMA GMBH, priority 2021, published 2024).

The series in a line: general procedure: peptide synthesis; HATU.
The mark [1] stands for this setting: late stage modification step, TFA salt.

Consider “N-{2-[{2-[(2-{[N2,N6-bis(14-{4-[({(1S)-2-carboxy-1-[3-({3-[(propylcarbamoyl) amino]benzene-1-sulfonyl}amino)phenyl]ethyl}carbamoyl)amino]anilino}-14-oxo-4,7,10-trioxa-13-azatetradecanan-1-oyl)-L-lysyl]amino}ethyl)(methyl)amino]ethyl}(methyl) amino]ethyl}-N-methylglycyl-L-asparaginyl-L-prolyl-N—[(R*)—{[(4R*)-15,19-difluoro-4-methyl-3,4-dihydro-2H,11H-12,16-(azeno)-10,6-(metheno)-1,5,11,13-benzodioxadiazacyclooctadecin-8-yl]methyl}(methyl)oxo-lambda6-sulfanylidene]-L-valinamide”, for which, for the setting “conjugation step”, the conjugation yield came to 61% yield and the “final LC-MS purity” value came out at 100% purity.

“N-{2-[{2-[(tert-butoxycarbonyl)(methyl)amino]ethyl}(methyl)amino]ethyl}-N-methylglycyl-L-asparaginyl-L-prolyl-N—[(S)-{[16,20-difluoro-2,3,4,5-tetrahydro-12H-13,17-(azeno)-11,7-(metheno)-1,6,12,14-benzodioxadiazacyclononadecin-9-yl]methyl}(methyl)oxo-lambda^6-sulfanylidene]-L-valinamide”: for the setting “coupling step”, the “final purity (method not given)” value was found to be 96% purity and the step yield is 51%.

As for “N-{2-[{2-[({4-[({(1R)-2-Carboxy-1-[3-({3-[(propylcarbamoyl)amino] benzene-1-sulfonyl}amino) phenyl]ethyl} carbamoyl)amino] phenyl}carbamoyl)(methyl)amino] ethyl} (methyl)amino]ethyl}-N-methylglycyl-L-asparaginyl-L-prolyl-N—”, where the note is “conjugation step”, the conjugation yield worked out at 30% yield and the “final purity (method not given)” value came to 100% purity.

Take “N-{2-[{2-[({4-[({(1R)-2-Carboxy-1-[3-({3-[(propylcarbamoyl)amino]benzene-1-sulfonyl}amino) phenyl]ethyl} carbamoyl)amino]phenyl}carbamoyl)(methyl)amino]ethyl} (methyl)amino]ethyl}-N-methylglycyl-L-asparaginyl-L-prolyl-N—”: under “conjugation step”, the conjugation yield is recorded as 94% and the “final purity (method not given)” value was 97% purity.

For the substance “N-{2-[{2-[({4-[({(1R)-2-Carboxy-1-[3-({3-[(propylcarbamoyl)amino]benzene-1-sulfonyl}amino) phenyl]ethyl}carbamoyl)amino]phenyl}carbamoyl)(methyl)amino]ethyl}(methyl)amino]ethyl}-N-methylglycyl-L-asparaginyl-L-prolyl-N—”, for the setting “conjugation step”, the conjugation yield is listed as 35% and the “final purity (method not given)” value stood at 100% purity.

As to “N-{2-[{2-[({4-[({(1S)-2-Carboxy-1-[3-({3-[(propylcarbamoyl)amino]benzene-1-sulfonyl}amino) phenyl]ethyl}carbamoyl)amino]phenyl}carbamoyl)(methyl)amino]ethyl}(methyl)amino]ethyl}-N-methylglycyl-L-asparaginyl-L-prolyl-N—[(R or S*)—{[(4R or S*)-15,19-difluoro-4-methyl-3,4-dihydro-2H,11H-12,16-(azeno)-10,6-(metheno)-1,5,11,13-benzodioxadiazacyclooctadecin-8-yl]methyl}(methyl)oxo-lambda^6-sulfanylidene]-L-valinamide”, under “conjugation step”, the conjugation yield came to 35% and the “final purity (method not given)” value is given as 100% purity.

Take “N-{2-[{2-[{2-[({4-[({(1S)-2-carboxy-1-[3-({3-[(propylcarbamoyl)amino]benzene-1-sulfonyl}amino)phenyl]ethyl}carbamoyl)amino]phenyl}carbamoyl)amino]ethyl}(methyl)amino]ethyl}(methyl)amino]ethyl}-N-methylglycyl-L-asparaginyl-L-prolyl-N—”: for the setting “conjugation step”, the conjugation yield was 15% yield and the “final purity (method not given)” value was 100% purity.

Take “trifluoroacetic acid N-methyl-N-(2-{methyl[2-(methylamino)ethyl]amino}ethyl)glycyl-L-asparaginyl-L-prolyl-N—[(S)-{[16,20-difluoro-2,3,4,5-tetrahydro-12H-13,17-(azeno)-11,7-(metheno)-1,6,12,14-benzodioxadiazacyclononadecin-9-yl]methyl}(methyl)oxo-lambda^6-sulfanylidene]-L-valinamide (1/1)”: under setting [1], the “crude purity (method not given)” value was 96% purity and the step yield came to 90%.
